According to PubChem BioAssay AID504444 (National Center for Advancing Translational Sciences (NCATS), 2011):
Hit rate of the full screen: of about 360,000 compounds, about 7,500 (2.1%) were called active. The shares of active, inactive and inconclusive entries below differ from those in the screen. Calls follow the shape of the dose curve; as a rule, active = well fitted inhibition curve with a large enough effect; inconclusive = small, poorly fitted or top-dose-only effect, or effect the other way; inactive = flat fitted curve, though single readings scatter. A potency beside an inconclusive call is a rough fit, not a confirmed value.

assay: Nrf2 qHTS screen for inhibitors; settings: A549 ARE-Fluc reporter, luciferase luminescence, 18-24 h; activity change, negative = inhibition: at 46 µM (top of the series); also: nearly all actives have a fitted effect of over 60% in size
Procedure, shortened: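 Nrf2 activity is the BugLite luminescence, read 15 min after reagent at room temperature, following CellTiter-Fluor cytotoxicity readout (30 min, 37C). Compound titrations were applied for 18-24 h to 5000 A549 ARE_Fluc cells/well in 5% FBS OPTI-MEM.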
% is scaled to controls: 0 for no effect and ±100 for the full control effect; potency is read from the fitted curve at half-maximal effect.

Q: Which Potency does the source give for `CCCCn1c(SCC(=O)OCC)nc2c1c(=O)[nH]c(=O)n2C` here?
A: inconclusive: 13 µM [activator, partial curve, poor fit]

Q: Which Potency does the source give for `COc1ccccc1-c1c(C)nn2c(N3CCC4(CC3)OCCO4)cc(C)nc12` here?
A: inconclusive: 8.2 µM [falling, partial curve, poor fit]

Q: With `O=c1c2cc(F)ccc2[nH]c(=S)n1Cc1ccc(F)cc1` as the molecule, how does the Potency read?
A: inconclusive: 4.11 µM [falling, partial curve, poor fit]

Q: With `Cc1cccc(N2CCN(C(=O)Cn3cnc4sc(C)c(S(=O)(=O)N5CCN(c6ncccn6)CC5)c4c3=O)CC2C)c1` (stereo not given) as the molecule, how does the “activity change, negative = inhibition” value read?
A: inactive: -28.9%

Q: Which Potency does the source give for `CCC(C)NC(=O)C1CCN(C(=O)c2ccc(-n3ccc4ccccc43)s2)CC1` (stereo not given) here?
A: inconclusive: 20.6 µM [falling, partial curve, poor fit]

Q: With `Cc1nnc(NC(=O)CSc2nnc(NC(=O)C(C)(C)C)s2)s1` as the molecule, how does the Potency read?
A: inconclusive: 1.64 µM [falling, full curve, poor fit]

Q: With `CC(=O)COc1cccc2ccc(/C=C/c3ccc(Br)s3)nc12` as the molecule, how does the Potency read?
A: inconclusive: 29.1 µM [falling, single point]

Q: Which “activity change, negative = inhibition” value does the source give for `Cc1nnc(SCC(=O)NC2CCCCC2)n1C1CCCCC1` here?
A: inactive: -8.66%

Q: Which Potency does the source give for `COC(=O)C(Cc1c[nH]c2ccccc12)NC(=O)c1ccc2nc[nH]c2c1` (stereo not given) here?
A: inconclusive: 4.61 µM [activator, single point]

Q: With `Cc1ccccc1C(=O)Nc1ccc2nc(Nc3cccc(C(F)(F)F)c3)cc(C)c2c1` as the molecule, how does the Potency read?
A: active: 18.4 µM

Q: With `COC(=O)c1cccc(Nc2c3c(nc4ccccc24)CCC3)c1` as the molecule, how does the Potency read?
A: active: 23.1 µM

Q: For `Cc1[nH]oc(=O)c1N=Nc1c(Cl)cccc1Cl`, which Potency is on record?
A: inconclusive: 25.9 µM [falling, single point]

Q: For `CC(C)(C)C1CCc2c(sc(NC(=O)CCC(=O)O)c2C(=O)Nc2ccccc2C(F)(F)F)C1` (stereo not given), which Potency is on record?
A: active: 18.4 µM

Q: Which Potency does the source give for `CN1N=C2c3ccccc3CCC2C1c1ccc(Cl)cc1` (stereo not given) here?
A: inconclusive: 10.3 µM [activator, partial curve]

Q: With `CCCCC(=O)Nc1ccc(NC(=S)NC(=O)c2ccco2)cc1OC` as the molecule, how does the Potency read?
A: inconclusive: 10.3 µM [activator, partial curve]

Q: For `Cc1cc2c3c([nH]c2cc1S(=O)(=O)NCCCOC(C)C)CC(C)(C)CC3=O`, which Potency is on record?
A: inconclusive: 7.31 µM [falling, partial curve, poor fit]

Q: Which “activity change, negative = inhibition” value does the source give for `CCOC(=O)c1cccc(NC(=O)N2CC(CC)Sc3ccccc32)c1` (stereo not given) here?
A: inactive: -14%

Q: For `CCc1cc(C(=O)N/N=C/c2ccc(OC)cc2)c2ccccc2n1`, which Potency is on record?
A: inconclusive: 25.9 µM [activator, partial curve]

Q: For `O=C(N/N=C/c1cccc([N+](=O)[O-])c1)C1CC1c1ccccc1` (stereo not given), which Potency is on record?
A: inconclusive: 20.6 µM [falling, partial curve]

Q: For `CCN(CC(=O)Nc1ccc(NC(C)=O)cc1)C(=O)CCCOc1ccc(C(C)(C)C)cc1`, which Potency is on record?
A: inconclusive: 23.1 µM [falling, single point]

Q: Which “activity change, negative = inhibition” value does the source give for `Fc1ccc(NC(=S)Nc2ccc(Cl)cc2)cc1` here?
A: inactive: 20.5%

Q: For `CN1CCN(Cc2nc(Cc3ccccc3)no2)CC1c1ccccc1` (stereo not given), which Potency is on record?
A: inconclusive: 1.3 µM [activator, partial curve, poor fit]

Q: With `FC(F)(F)c1cccc(N2CCN(Cc3nnc(-c4ccc5c(c4)OCO5)o3)CC2)c1` as the molecule, how does the Potency read?
A: inconclusive: 29.1 µM [falling, single point]

Q: For `C=CCNC(=O)/C=C/c1ccc(C(C)C)cc1`, which Potency is on record?
A: inconclusive: 6.51 µM [activator, full curve]

Q: Which Potency does the source give for `O=c1oc2ccccc2c(NCc2cccc(F)c2)c1[N+](=O)[O-]` here?
A: inconclusive: 18.4 µM [falling, partial curve]

Q: Which Potency does the source give for `CN(Cc1ccccc1F)C(=O)c1cccc(NC(=O)CC2SC(N3CCCCC3)=NC2=O)c1` (stereo not given) here?
A: active: 18.4 µM

Q: Which “activity change, negative = inhibition” value does the source give for `C/C=C/C(=O)[C@@H](C)[C@@H](/C=C/C[Si](C)(C)C)C(C)C` here?
A: inactive: 9.87%

Q: Which Potency does the source give for `O=C(O)COn1c(-c2ccc(Cl)cc2)nc2ccc(Cl)cc21` here?
A: inconclusive: 20.6 µM [activator, single point]

Q: For `O=C(CN1C(=O)NC2(CCCc3ccccc32)C1=O)c1ccccc1F` (stereo not given), which “activity change, negative = inhibition” value is on record?
A: inactive: -5.15%

Q: Which Potency does the source give for `C#CC[N+](CC)(CC)CC#Cc1ccccc1` here?
A: inconclusive: 18.4 µM [falling, partial curve, poor fit]

Q: Which Potency does the source give for `CCN(CC)CCN(Cc1cc2cc(C)ccc2[nH]c1=O)C(=S)Nc1ccccc1` here?
A: inconclusive: 29.1 µM [activator, single point]

Q: With `O=C(NCC(=O)N(c1ccc(F)cc1)C(C(=O)NC1CCCCC1)c1cccnc1)c1ccco1` (stereo not given) as the molecule, how does the “activity change, negative = inhibition” value read?
A: inactive: 1.55%

Q: For `Cn1cc(/C=C(\C#N)C(=O)Nc2ncc(Cc3ccc(Cl)cc3)s2)c2ccccc21`, which Potency is on record?
A: inconclusive: 1.64 µM [falling, full curve, poor fit]

Q: With `Cc1ccc(C(=O)C2CCN(CC(=O)Nc3nc(C)cs3)CC2)cc1` as the molecule, how does the “activity change, negative = inhibition” value read?
A: inactive: -2.96%

Q: Which Potency does the source give for `CCN(c1ccc(OC)cc1)S(=O)(=O)c1nnc(NC(=O)c2ccccc2C)s1` here?
A: inconclusive: 23.1 µM [activator, partial curve, poor fit]

Q: For `Cc1ccc(N(Cc2ccccc2)C(=O)c2ccc(Cl)c(S(=O)(=O)N3CCOCC3)c2)cc1`, which Potency is on record?
A: inconclusive: 25.9 µM [falling, single point]

Q: For `CCC(CC)Nc1ccc(C(CC(N)=O)NC(=O)Cc2ccc(Br)cc2)cc1[N+](=O)[O-]` (stereo not given), which Potency is on record?
A: inconclusive: 18.4 µM [falling, partial curve]

Q: For `Cc1cc(=O)n(Cc2ccccc2)c2ccccc12`, which Potency is on record?
A: inconclusive: 20.6 µM [activator, single point]

Q: Which Potency does the source give for `Cc1ccc(OS(=O)(=O)c2ccc(N3C(=O)CCC3=O)cc2)cc1` here?
A: inconclusive: 6.51 µM [falling, partial curve, poor fit]

Q: With `CCOc1ccc(-c2ccc(SCC)nn2)cc1` as the molecule, how does the Potency read?
A: inconclusive: 0.82 µM [activator, full curve]

Q: For `CCn1c(N2CCN(CC(=O)c3c(C)n(C)c4ccc(OC)cc34)CC2)nc2c1c(=O)[nH]c(=O)n2C`, which Potency is on record?
A: inconclusive: 0.651 µM [falling, full curve, poor fit]

Q: For `COc1cccc(CNC(=O)c2ccc(-c3nc(CS(=O)(=O)c4ccccc4)c(C)o3)cc2)c1`, which Potency is on record?
A: active: 23.1 µM

Q: With `COc1ccc(O)c(/C=N/NC(=O)c2ccc(N3CCCC3=O)cc2)c1` as the molecule, how does the “activity change, negative = inhibition” value read?
A: inactive: -4.26%

Q: Which Potency does the source give for `Cn1cc(S(=O)(=O)Nc2ccc(Cl)cc2Cl)c(=O)n(C)c1=O` here?
A: inconclusive: 14.6 µM [falling, partial curve, poor fit]

Q: For `Cn1c(C(=O)NCCN2CCc3ccccc3C2)cc2c(=O)[nH]c3ccccc3c21`, which Potency is on record?
A: inconclusive: 29.1 µM [falling, single point]

Q: Which Potency does the source give for `CCOC(=O)c1csc(NC(=O)c2ccccc2)n1` here?
A: inconclusive: 2.59 µM [activator, full curve]

Q: With `COc1ccc(-c2noc(CSc3nnc(Cc4ccccc4)n3-c3ccc(Cl)cc3)n2)cc1` as the molecule, how does the Potency read?
A: inconclusive: 18.4 µM [falling, single point]

Q: With `C=CCN1C(c2ccc(Br)cc2)=CS/C1=C(\C#N)c1nnc(N2CCOCC2)n1-c1ccccc1` as the molecule, how does the Potency read?
A: active: 25.9 µM

Q: For `CC1(C(=O)Nc2cccc(S(=O)(=O)N3CCOCC3)c2)Cc2ccccc2C(=O)O1` (stereo not given), which Potency is on record?
A: inconclusive: 13 µM [falling, partial curve]

Q: For `CNC(=O)COc1ccc(S(=O)(=O)Nc2ccc(C)cc2)cc1`, which Potency is on record?
A: inconclusive: 1.3 µM [falling, full curve, poor fit]

Q: With `Cc1cc(C)cc(-n2nnc(-c3nsc(NC(=O)c4ccccc4Cl)n3)c2C)c1` as the molecule, how does the “activity change, negative = inhibition” value read?
A: inactive: -17.1%

Q: For `O=C(O)c1ccc(-n2cc(C(=O)c3ccccc3O)cn2)cc1`, which Potency is on record?
A: inconclusive: 18.4 µM [activator, partial curve, poor fit]

Q: Which Potency does the source give for `COCc1cc(C)nc(OCC(=O)N/N=C/c2ccc(-c3cc([N+](=O)[O-])ccc3C)o2)c1C#N` here?
A: inconclusive: 11.2 µM [falling, partial curve, poor fit]

Q: Which Potency does the source give for `Fc1ccc(/C=N/NC(=S)Nc2ccc(Cl)cc2)cc1F` here?
A: inconclusive: 18.4 µM [activator, partial curve]

Q: Which Potency does the source give for `Fc1ccccc1CNc1ncnc2sccc12` here?
A: active: 4.11 µM

Q: Which Potency does the source give for `Clc1ccc(C#Cc2cccnc2)cc1` here?
A: inconclusive: 13 µM [activator, partial curve]

Q: With `Cc1c(N2C(=O)/C(=C\c3ccc(N(C)C)cc3)N(C)C2=S)c(=O)n(-c2ccccc2)n1C` as the molecule, how does the “activity change, negative = inhibition” value read?
A: inactive: -8.63%

Q: With `COc1cccc(-c2ccc(C#N)c(SCC(=O)NCCc3cccc(Cl)c3)n2)c1` as the molecule, how does the Potency read?
A: inconclusive: 8.2 µM [falling, partial curve, poor fit]

Q: Which Potency does the source give for `CN(CC(=O)Nc1ccccc1Br)C(=O)c1cc2c(s1)CCCCC2` here?
A: inconclusive: 20.6 µM [activator, partial curve]

Q: With `COc1ccc(CCNC(=O)C(=O)NCC2OCCN2S(=O)(=O)c2ccc(Cl)cc2)cc1OC` (stereo not given) as the molecule, how does the Potency read?
A: inconclusive: 18.4 µM [falling, single point]

Q: For `COc1ccc(-n2cccc2C=O)cc1OC`, which Potency is on record?
A: inconclusive: 9.2 µM [activator, partial curve]

Q: Which Potency does the source give for `CCOc1ccc(NC(=O)Cn2c(=O)n(CC3CCCO3)c(=O)c3ccccc32)cc1` (stereo not given) here?
A: inconclusive: 23.1 µM [falling, single point]

Q: Which Potency does the source give for `COc1ccc(C=NNc2ccc([N+](=O)[O-])cn2)cc1` here?
A: inconclusive: 2.59 µM [activator, full curve]

Q: Which Potency does the source give for `COc1ccc(CC2(CO)CCN(C(C)COc3ccccc3)CC2)cc1` (stereo not given) here?
A: inconclusive: 29.1 µM [activator, single point]

Q: For `COc1c(C(=O)Nc2ccc(Cc3ccncc3)cc2)ccc2ccccc12`, which Potency is on record?
A: inconclusive: 20.6 µM [falling, partial curve, poor fit]
